Results on one compound are retold here after patent publication US10085445B2, “Biocorrosion inhibitor for metal” (KURARAY CO., LTD., priority 2013, dated 2018).

In the series the test system is activated sludge. The series can be described thus: Biodegradability test (OECD 301C, JIS K 6950). The note with it: standard substance 30 mg (200 ppm).

For the compound `Nc1ccccc1` [aniline], the degradability judgement result was “good degradability”. In addition, under “during the test period”, the biodegradation ratio entry is on record as “not less than 60%”.
